Reference: PubChem BioAssay AID493014 (National Center for Advancing Translational Sciences (NCATS), 2011)
The other results are listed elsewhere or left out. Shown are side measurements of this screen, not its main read-out; they come without a call. Most of these compounds were active or inconclusive in the main read-out, so they are no random draw. The note in brackets gives the kind of curve behind each potency; many fits are weak.

Experiment: qHTS Assay to Find Inhibitors of Chronic Active B-Cell Receptor Signaling
Conditions: ABC-DLBCL IkBa-CBG/CBR reporter, luminescence ratio (green luciferase fused to IkBa over red control in TMD8 lymphoma cells), 4 h
Procedure, shortened: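 TMD8 ABC-DLBCL cells carrying doxycycline-inducible green luciferase fused to IkappaBalpha plus unfused red luciferase were exposed to compounds (up to 46 uM) for 4 hrs at 37C. Activity came from the overlap-corrected green/red luminescence ratio.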

[1] = measured here: CBR red luminescence, cell number
[2] = measured here: IkBa-CBG green luminescence

Structure (SMILES)	AC50 [1]	AC50 [2]
N#Cc1ccc(CC(C(=O)O)N2Cc3ccccc3C2=O)cc1 (configuration not stated)	22.4 µM [rising, partial curve, poor fit]	–
O=c1oc2ccc3ccccc3c2cc1-c1nnc(-c2ccccc2)o1	10 µM [falling, partial curve]	–
Cc1nn(-c2ccccc2)c(Cl)c1/C=N/Nc1nc2ccccc2[nH]1	0.461 µM [rising, full curve, poor fit]	–
COc1cc2ccccc2cc1C(=O)NC1CCCC1	2.91 µM [rising, full curve, poor fit]	–
COc1ccc(Br)cc1/C=C/C(=O)NC(=S)Nc1ccc(CN2CCOCC2)cc1	3.98 µM [falling, single point]	–
Cc1ccc(NC(=O)COc2ccccc2CNC(C)(C)CC(C)(C)C)cc1	29.1 µM [falling, single point]	–
COc1ccc(C2=NNC(c3cccs3)=Nc3ccc(OC)cc32)cc1	0.58 µM [rising, partial curve]	–
CCc1cc(=S)n2c([nH]c3ccccc32)c1C#N	25.1 µM [falling, single point]	–
CC(OC(=O)C1=Cc2ccccc2OC1)C(=O)NCc1ccco1 (configuration not stated)	5.62 µM [rising, single point]	–
COc1ccc(C)cc1NC(=O)COC(=O)Cc1ccc(-c2ccccc2)cc1	1.46 µM [falling, full curve, poor fit]	–
COc1ccc(C(=O)/C(=C\c2sccc2C)c2nc3ccccc3o2)cc1	18.4 µM [falling, partial curve, poor fit]	–
CC(C)NC(=O)N(O)C1N(C(C)C)C(=O)N(Cc2ccc3c(c2)OCO3)C1(C)C (configuration not stated)	1.41 µM [rising, full curve, poor fit]	–
O=C1/C(=C\c2ccco2)SC(=S)N1c1ccccc1	2.91 µM [rising, full curve, poor fit]	–
Cc1ccc(S(=O)(=O)N(C)C)cc1-n1c(SCC(=O)Nc2ccc(F)c(F)c2F)nc2ccccc2c1=O	25.9 µM [rising, single point]	–
Clc1ccc(COn2c(-c3ccc(Cl)cc3Cl)nc3ncccc32)cc1	0.731 µM [falling, full curve, poor fit]	–
Cc1nc(NC(=O)c2ccc(Br)s2)sc1C(=O)N(C)C	29.1 µM [rising, partial curve, poor fit]	–
CC1(C)CC(=O)c2cnc3nc4ccccc4n3c2C1	3.16 µM [rising, partial curve]	–
COc1ccc(OCc2nc3ccccc3[nH]2)cc1	6.51 µM [falling, partial curve]	–
O=C(NCc1cccc(CNC(=O)Nc2cccc(O)c2)c1)Nc1cccc(O)c1	3.55 µM [rising, single point]	–
CCC(C(=O)Nc1cc(C)nn1-c1nc(C)cc(C)n1)c1ccccc1 (configuration not stated)	10 µM [falling, partial curve, poor fit]	–

Structure (SMILES)	AC50 [1]	AC50 [2]
CCN(C(=O)c1ccc(C(C)(C)C)cc1)c1nnc(Cn2nnc3ccccc32)s1	35.5 µM [falling, single point]	–
Cc1ccc(C)c(N2CCN(C(=O)CSc3ccsc3[N+](=O)[O-])CC2)c1	0.259 µM [falling, full curve, poor fit]	–
CC(C)N(C(=O)CSc1nnc(Cc2csc(Nc3ccccc3)n2)o1)C(C)C	6.31 µM [rising, single point]	–
O=C(C1CCN(S(=O)(=O)c2ccc(Cl)cc2)CC1)N1CCN(c2ccccn2)CC1	25.9 µM [falling, partial curve]	–
NS(=O)(=O)c1ccc(NCC2COc3ccccc3O2)c([N+](=O)[O-])c1 (configuration not stated)	1.12 µM [rising, full curve, poor fit]	–
O=C(COC(=O)c1cccc(S(=O)(=O)NCc2ccccc2)c1)Nc1ccccc1OC(F)F	0.731 µM [rising, full curve, poor fit]	–
Fc1ccc(Nc2nc(SCc3ccccc3F)nc3ccccc23)cc1	35.5 µM [falling, single point]	14.1 µM [rising, partial curve, poor fit]
O=C(NCC(c1ccco1)N1CCN(c2ccccc2F)CC1)c1ccco1 (configuration not stated)	32.6 µM [rising, single point]	–
Cc1nnc(-c2cnn(C)c2N)n1Cc1cccc(Cl)c1	6.51 µM [falling, single point]	–
O=C(Nc1cccnc1)c1cc(-c2ccc(F)cc2)on1	2.24 µM [falling, full curve]	–
COc1ccc(CN(CC2CCC(C(=O)O)CC2)C(=S)Nc2cc(Cl)ccc2OC)cc1 (configuration not stated)	–	12.6 µM [rising, partial curve, poor fit]
COC(=O)c1cnn2c1C(=O)N(Cc1cccs1)CC2	0.282 µM [falling, full curve, poor fit]	–
COc1ccccc1-c1nnc2sc(-c3ccc(N(C)C)cc3)nn12	2.06 µM [rising, full curve]	1.84 µM [falling, full curve]
CC(C)C(=O)N1CCN(c2ccccc2NC(=O)COc2ccccc2)CC1	25.1 µM [falling, single point]	–
O=C(Nc1ccon1)c1nc[nH]c1C(=O)NCc1ccccc1	0.058 µM [falling, full curve, poor fit]	–
CCn1cc(CCC(=O)NCCN2CCOCC2)c2ccccc21	12.6 µM [rising, partial curve, poor fit]	–
O=c1[nH]nc(SCCS(=O)(=O)c2ccc(F)cc2)n1-c1ccccc1	10 µM [falling, partial curve]	–
O=C(NCCc1ccccc1)C(=O)NCC1OCCN1S(=O)(=O)c1ccc(Cl)cc1 (configuration not stated)	3.55 µM [rising, single point]	–
Cc1csc(SCC(=O)Nc2nc3ccccc3s2)n1	18.4 µM [falling, partial curve, poor fit]	–
Cc1cc(N2CCN(C)CC2)n2nc(-c3ccc(Cl)cc3)nc2n1	0.891 µM [rising, partial curve, poor fit]	–

Ordered by length of the SMILES (low to high): some entries from above
Structure (SMILES)	AC50 [1]	AC50 [2]
Cc1csc(SCC(=O)Nc2nc3ccccc3s2)n1	18.4 µM [falling, partial curve, poor fit]	–
COC(=O)c1cnn2c1C(=O)N(Cc1cccs1)CC2	0.282 µM [falling, full curve, poor fit]	–
Cc1nnc(-c2cnn(C)c2N)n1Cc1cccc(Cl)c1	6.51 µM [falling, single point]	–
Fc1ccc(Nc2nc(SCc3ccccc3F)nc3ccccc23)cc1	35.5 µM [falling, single point]	14.1 µM [rising, partial curve, poor fit]
Cc1cc(N2CCN(C)CC2)n2nc(-c3ccc(Cl)cc3)nc2n1	0.891 µM [rising, partial curve, poor fit]	–
O=C(NCC(c1ccco1)N1CCN(c2ccccc2F)CC1)c1ccco1 (configuration not stated)	32.6 µM [rising, single point]	–
O=c1[nH]nc(SCCS(=O)(=O)c2ccc(F)cc2)n1-c1ccccc1	10 µM [falling, partial curve]	–
CC(C)N(C(=O)CSc1nnc(Cc2csc(Nc3ccccc3)n2)o1)C(C)C	6.31 µM [rising, single point]	–
NS(=O)(=O)c1ccc(NCC2COc3ccccc3O2)c([N+](=O)[O-])c1 (configuration not stated)	1.12 µM [rising, full curve, poor fit]	–
CCN(C(=O)c1ccc(C(C)(C)C)cc1)c1nnc(Cn2nnc3ccccc32)s1	35.5 µM [falling, single point]	–
